In patent publication US12091402B2 (Avilar Therapeutics, Inc., priority 2021, dated 2024):

Experiments:
[1] = general procedure: Fmoc solid-phase peptide synthesis; AM Resin (0.30 mmol/g); CTC Resin; HBTU/DIEA
[2] = general procedure: Fmoc solid-phase peptide synthesis; CTC resin; HBTU/DIEA; details: whole synthesis, scale 0.5 mmol
[3] = whole synthesis, scale 0.50 mmol

## 3-((2S,5aR,11S,14R,17S,20S,23S,26S,32S,35S,38S,41S,44R,47S,49aS)-35-((1H-imidazol-5-yl)methyl)-17,38-bis((1H-indol-3-yl)methyl)-47-(carboxymethyl)-11-((R)-1-hydroxyethyl)-23,32-diisobutyl-20-isopropyl-41-methyl-5,10,13,16,19,22,25,28,31,34,37,40,43,46,49-pentadecaoxo-2-(14-oxo-4,7,10-trioxa-13-azanonadec-18-ynamido)octatetracontahydro-5H-14,44-(methanodithiomethano)dipyrrolo[1,2-a:1′,2′-d][1,4,7,10,13,16,19,22,25,28,31,34,37,40,43]pentadecaazacyclopentatetracontin-26-yl)propanoic acid
[1]; whole synthesis
  final purity (method not given): 95.1% purity
  isolated yield: 1.74%

## 3-((2S,5aR,11S,14R,17S,20S,23S,26S,32S,35S,38S,41S,44R,47S,49aS)-35-((1H-imidazol-5-yl)methyl)-38-((1H-indol-3-yl)methyl)-2-amino-47-(carboxymethyl)-17-((5-chloro-1H-indol-3-yl)methyl)-11-((R)-1-hydroxyethyl)-23,32-diisobutyl-20-isopropyl-41-methyl-5,10,13,16,19,22,25,28,31,34,37,40,43,46,49-pentadecaoxooctatetracontahydro-5H-14,44-(methanodithiomethano)dipyrrolo[1,2-a:1′,2′-d][1,4,7,10,13,16,19,22,25,28,31,34,37,40,43]pentadecaazacyclopentatetracontin-26-yl)propanoic acid
[1]; whole synthesis
  final purity (method not given): 97.9% purity
  isolated yield: 18.0% yield

## 3-((2S,5aR,11S,14R,17S,20S,23S,26S,32S,35S,38S,41S,44R,47S,49aS)-35-((1H-imidazol-5-yl)methyl)-38-((1H-indol-3-yl)methyl)-2-amino-47-(carboxymethyl)-17-((6-chloro-1H-indol-3-yl)methyl)-11-((R)-1-hydroxyethyl)-23,32-diisobutyl-20-isopropyl-41-methyl-5,10,13,16,19,22,25,28,31,34,37,40,43,46,49-pentadecaoxooctatetracontahydro-5H-14,44-(methanodithiomethano)dipyrrolo[1,2-a:1′,2′-d][1,4,7,10,13,16,19,22,25,28,31,34,37,40,43]pentadecaazacyclopentatetracontin-26-yl)propanoic acid
[1]; whole synthesis
  final purity (method not given): 95.1% purity
  isolated yield: 23.3% yield

## 3-((6S,9R,12S,15S,18S,21S,27S,30S,33S,36S,39R,42S,44aS,46S,49aR)-30-((1H-imidazol-5-yl)methyl)-12,33-bis((1H-indol-3-yl)methyl)-42-(carboxymethyl)-6-((R)-1-hydroxyethyl)-18,27-diisobutyl-15-isopropyl-36-methyl-5,8,11,14,17,20,23,26,29,32,35,38,41,44,49-pentadecaoxo-46-(17-oxo-4,7,10,13-tetraoxa-16-azadocos-21-ynamido)octatetracontahydro-1H-9,39-(methanodithiomethano)dipyrrolo[1,2-a:1′,2′-d][1,4,7,10,13,16,19,22,25,28,31,34,37,40,43]pentadecaazacyclopentatetracontin-21-yl)propanoic acid
[1]; conjugation step, run 1
  conjugation yield: 34.3% yield
  final purity (method not given): 95.1% purity
[1]; conjugation step, run 2
  conjugation yield: 57.50% yield
  final purity (method not given): 97.9% purity
[1]; whole synthesis, overall
  isolated yield: 2.73%

## 3-((6S,9R,12S,15S,18S,21S,27S,30S,33S,36S,39R,42S,44aS,46S,49aR)-30-((1H-imidazol-5-yl)methyl)-12,33-bis((1H-indol-3-yl)methyl)-46-(4-(1-(((2R,3R,4R,5R)-5-acetamido-3,4-dihydroxy-6-methoxytetrahydro-2H-pyran-2-yl)methyl)-1H-1,2,3-triazol-4-yl)butanamido)-42-(carboxymethyl)-6-((R)-1-hydroxyethyl)-18,27-diisobutyl-15-isopropyl-36-methyl-5,8,11,14,17,20,23,26,29,32,35,38,41,44,49-pentadecaoxooctatetracontahydro-1H-9,39-(methanodithiomethano)dipyrrolo[1,2-a:1′,2′-d][1,4,7,10,13,16,19,22,25,28,31,34,37,40,43]pentadecaazacyclopentatetracontin-21-yl)propanoic acid
[1]; conjugation step
  conjugation yield: 66.8% yield
  final purity (method not given): 97.7% purity

## 3-((6S,9R,12S,15S,18S,21S,27S,30S,33S,36S,39R,42S,44aS,46S,49aR)-30-((1H-imidazol-5-yl)methyl)-12,33-bis((1H-indol-3-yl)methyl)-46-amino-6-((R)-1-hydroxyethyl)-18,27-diisobutyl-15-isopropyl-36,42-dimethyl-5,8,11,14,17,20,23,26,29,32,35,38,41,44,49-pentadecaoxooctatetracontahydro-1H-9,39-(methanodithiomethano)dipyrrolo[1,2-a:1′,2′-d][1,4,7,10,13,16,19,22,25,28,31, 34,37,40,43]pentadecaazacyclopentatetracontin-21-yl)propanoic acid
[1]; [3]
  final purity (method not given): 97.00% purity
  isolated mass: 144.00 mg
  isolated yield: 16.640% yield
[1]; whole synthesis, scale 0.50 mmol, run 1
  crude mass: 1.20 g, crude
[1]; whole synthesis, scale 0.50 mmol, run 2
  crude mass: 900.0 mg, crude

## 3-((6S,9R,12S,15S,18S,21S,27S,30S,33S,36S,39R,42S,44aS, 46S,49aR)-30-((1H-imidazol-5-yl)methyl)-12,33-bis((1H-indol-3-yl)methyl)-42-(carboxy methyl)-46-(hex-5-ynamido)-6-((R)-1-hydroxyethyl)-18,27-diisobutyl-15-isopropyl-36-methyl-5,8,11,14,17,20,23,26,29,32,35,38,41,44,49-pentadecaoxooctatetracontahydro-1H-9,39-(methanodithiomethano)dipyrrolo[1,2-a:1′,2′-d][1,4,7,10,13,16,19,22,25,28,31,34,37,40,43]pentadecaazacyclopentatetracontin-21-yl)propanoic acid
[1]; late stage modification step
  final purity (method not given): 97.8% purity
  step yield: 36.54% yield

## 3-[(1R,4S,7S,10S,13S,19S,22S,25S,28S,31R,34S,40R,44R,46S,49S)-44-amino-49-(carboxymethyl)-34-[(1R)-1-hydroxyethyl]-10-(1H-imidazol-5-ylmethyl)-7,28-bis(1H-indol-3-ylmethyl)-13,22-diisobutyl-25-isopropyl-4-methyl-2,5,8,11,14,17,20,23,26,29,32,35,41,47,50-pentadecaoxo-53,54-dithia-3,6,9,12,15,18,21,24,27,30,33,36,42,48,51-pentadecazatetracyclo[29.20.4.036,40.042,46]pentapentacontan-19-yl]propanoic acid
[2]
  crude mass: 190.0 mg, crude
[1]; oxidative folding step
  final purity (method not given): 91.06% purity
  oxidative folding yield: 19.7% yield
[1]; whole synthesis
  final purity (method not given): 95.2% purity
[1]; whole synthesis, overall
  isolated yield: total yield 5.0%
[1]; whole synthesis, scale 0.5 mmol
  isolated mass: 42.7 mg

## (2S,5aR,11S,14R,17S,20S,23S,26S,32S,35S,38S,41S,44R,47S,49aS)-35-((1H-imidazol-5-yl)methyl)-17,38-bis((1H-indol-3-yl)methyl)-2-amino-11-((R)-1-hydroxyethyl)-23,32-diisobutyl-20-isopropyl-26,41,47-trimethyltetratriacontahydro-5H-14,44-(methanodithiomethano)dipyrrolo[1,2-a:1′,2′-d][1,4,7,10,13,16,19,22,25,28,31,34,37,40,43]pentadecaazacyclopentatetracontine-5,10,13,16,19,22,25,28,31,34,37,40,43,46,49-pentadecaone
[1]; whole synthesis
  final purity (method not given): 95.9% purity
  isolated yield: 19.1% yield

## (S)-3-(((4R,7S,10S,13S,16S,22S,25S,28S,31S,34R)-25-((1H-imidazol-5-yl)methyl)-7,28-bis((1H-indol-3-yl)methyl)-4-(((2S,3R)-1-amino-3-hydroxy-1-oxobutan-2-yl)carbamoyl)-16-(2-carboxyethyl)-13,22-diisobutyl-10-isopropyl-31-methyl-6,9,12,15,18,21,24,27,30,33-decaoxo-1,2-dithia-5,8,11,14,17,20,23,26,29,32-decaazacyclopentatriacontan-34-yl)carbamoyl)-5,21-dioxo-8,11,14,17-tetraoxa-4,20-diazahexacos-25-yn-1-oic acid
[1]; whole synthesis
  final purity (method not given): 95.1% purity
  isolated yield: 14.99% yield

## (S)-3-(((4R,7S,10S,13S,16S,22S,25S,28S,31S,34R)-25-((1H-imidazol-5-yl)methyl)-7,28-bis((1H-indol-3-yl)methyl)-4-(((2S,3R)-1-amino-3-hydroxy-1-oxobutan-2-yl)carbamoyl)-16-(2-carboxyethyl)-13,22-diisobutyl-10-isopropyl-31-methyl-6,9,12,15,18,21,24,27,30,33-decaoxo-1,2-dithia-5,8,11,14,17,20,23,26,29,32-decaazacyclopentatriacontan-34-yl)carbamoyl)-20-oxo-7,10,13,16-tetraoxa-4,19-diazapentacos-24-ynoic acid
[1]; whole synthesis
  final purity (method not given): 95.2% purity
  isolated yield: 19.13%
